Data: article PMC12040169 (PLOS Biology, 2025)
Some of the results follow.

The compounds below were run on T1, CTL2-GFP (C. trachomatis L2/434/Bu, GFP-expressing). Conditions: bulk GFP, single well; 28.5 h, 10 µM; inhibitor.
T1 construct: L2/434/Bu, GFP-expressing
Design: species or system HeLa; Intracellular C. trachomatis growth in HeLa cells, bulk GFP fluorescence relative to DMSO

Row | Structure (SMILES) | % of control remaining
1 | CCN(CC)Cc1c(O)ccc2c(C#N)c(C)n(-c3ccccc3)c12 [CBK261527C] | 111.685%
2 | NNC(=O)c1c(NC(=O)c2ccccc2)sc2c1CCC2 [CBK262516] | 120.543%
3 | CN(C)CCNC(=O)c1cc(-c2cccnc2)nc2c(Cl)cccc12 [CBK267761] | 91.7611%
4 | CN(CC(=O)NCc1ccco1)C1CCCCC1 [CBK304471] | 143.006%
5 | O=C(Cc1nnn[nH]1)N1CCC(Cn2cncn2)(C2CCCCC2)CC1 [CBK136796] | 113.607%
6 | CC(NS(=O)(=O)N(C)C)c1ccccc1 (stereo not drawn) [CBK263819] | 111.6%
7 | CC(C)c1nc(CCN(C)C(=O)NCc2cc(-c3ccco3)on2)no1 [CBK307443] | 171.295%
8 | Cc1nc(C2CC(O)C2)cc(N(C)CCOc2cccc(Cl)c2)n1 (stereo not drawn) [CBK307691] | 141.089%
9 | COc1ccc2nc(Nc3nc4c(s3)C(=O)CC(C)(C)C4)sc2c1 [CBK287481] | 143.267%
10 | COc1cccc2cc(C(=O)C3=C(O)C(=O)N(CCN4CCOCC4)C3c3cccc(Cl)c3)oc12 (stereo not drawn) [CBK266599] | 125.153%
11 | CCOc1ccc(NC(=O)C2C3c4ccccc4C(c4ccccc43)C2C(=O)O)cc1 (stereo not drawn) [CBK261544] | 110.587%
12 | C=CCNc1nccnc1-c1ccc(CO)cc1 [CBK036870] | 111.704%
13 | CC(C)(C)OC(=O)Nc1ccc(Nc2cc(-c3ccc(F)c(F)c3)ncn2)cc1 [CBK091143] | 155.262%
14 | CC(=O)c1cc(C(=O)NC(c2ccccc2)c2cccnc2)cs1 (stereo not drawn) [CBK282514] | 87.9006%
15 | CNC(=S)N1CCN(c2nccnc2NS(=O)(=O)C2CC2)CC1 [CBK048905] | 123.682%
16 | Cc1ccccc1OCCCn1cncc1-c1cnn(C)c1 [CBK281762] | 100.767%
17 | CC(=O)NC[C@H]1CN(c2ccc(C3CNC3)c(F)c2)C(=O)O1 [CBK013035] | 141.26%
18 | CCCCCSc1c(C#N)nc(N2CCOCC2)c2c1CC(C)(C)OC2 [CBK021748] | 101.147%
19 | Cn1cc(C2c3ccccc3C(=O)N2CC(=O)O)c2ccccc21 (stereo not drawn) [CBK286555] | 106.711%
20 | O=C(NCC1CCCCC1)C1(Cc2cccc(-c3cccnc3)c2)CCOCC1 [CBK285607] | 109.733%
21 | O=C(Nc1cccc(Cl)c1)N(Cc1ccncc1)CC1CCCO1 (stereo not drawn) [CBK305362] | 100.316%
22 | COc1ccc(S(=O)(=O)N(C)CC(=O)Nc2cccc(F)c2)cc1Cl [CBK267882] | 127.584%
23 | Cc1nc(SCC(=O)NCC2CCCOC2)oc1C (stereo not drawn) [CBK282195] | 115.214%
24 | CC(C(=O)N1CCCC(COc2ccc(F)cc2)C1)n1ccnc1 (stereo not drawn) [CBK282027] | 140.074%
25 | Cc1cc(COc2ccnc(N3CCCN(CCCC#N)CC3)n2)no1 [CBK084144] | 95.039%
26 | CC(C)C(=O)Nc1cc2ccccc2c(-c2cccc(C(F)(F)F)c2)n1 [CBK085738] | 82.7411%

Looked up above.
Entry of `O=C(Cc1nnn[nH]1)N1CCC(Cn2cncn2)(C2CCCCC2)CC1` [CBK136796] under % of control remaining: 113.607%
Entry of `O=C(NCC1CCCCC1)C1(Cc2cccc(-c3cccnc3)c2)CCOCC1` [CBK285607] under % of control remaining: 109.733%
Entry of `CC(=O)c1cc(C(=O)NC(c2ccccc2)c2cccnc2)cs1` (stereo not drawn) [CBK282514] under % of control remaining: 87.9006%

(list continues)

Row | Structure (SMILES) | % of control remaining
27 | CN(C(=O)CN1CCN(c2cc(-c3cccc4oc5ccccc5c34)ncn2)CC1)c1ccccc1 [CBK091130] | 186.344%
28 | Cc1ccccc1OCC(=O)Nc1ccc(C(=O)O)c(Cl)c1 [CBK287027] | 138.249%
29 | CN1CCN(S(=O)(=O)c2ccc(Oc3ccccc3)cc2)CC1 [CBK062430] | 113.945%
30 | CN1CCCN(c2cncc(-c3cccc(OC(F)(F)F)c3)n2)CC1 [CBK065949] | 134.818%
31 | CN1CCC[C@H]1C(=O)Nc1cc(-c2ccncc2)c[nH]c1=O [CBK116587] | 121.929%
32 | CSCC(=O)N1CC[C@H](NC(=O)NC2CCCCC2)[C@H]1C(=O)N1CCC[C@@H]1C(N)=O [CBK289265] | 93.4541%
33 | CN(c1ncccc1CNC(=O)c1c[nH]c(=O)c(Cl)c1)C1CCCCC1 [CBK307267] | 121.781%
34 | COc1cc(F)cc(OC2CCNCC2)c1NC(=O)c1c(-c2ccccc2)noc1C [CBK050350T] | 112.432%
35 | COC(=O)c1cc(NC(=O)c2cc(-c3ccc(C)o3)nc3ccccc23)cc(C(=O)OC)c1 [CBK265400] | 134.841%
36 | COc1ccc(NC(=O)N2CCCCC2c2cccnc2)cc1 (stereo not drawn) [CBK293947] | 163.511%
37 | O=S(=O)(c1ccc(C(F)(F)F)cc1Cl)N1CCCN(Cc2ccnc3ccccc23)CC1 [CBK062942] | 132.182%
38 | CCCCCCC1N=NC(c2ccc(F)cc2)=CN1O (stereo not drawn) [CBK019298] | 122.073%
39 | CCC(C)NC(=O)CN1CCN(Cn2nnc3ccccc3c2=O)CC1 (stereo not drawn) [CBK305032] | 96.3564%
40 | O=C(c1[nH]nc2c1CCCC2)N1CCn2cc(C(F)(F)F)nc2C1 [CBK283915] | 111.047%
41 | CCn1cc(S(=O)(=O)NC2(c3ccc(F)cc3)CC2)c(C)n1 [CBK282837] | 113.413%
42 | Cc1cccc(CNc2nccnc2-c2cccc(Cl)c2)c1 [CBK037527] | 136.293%
43 | O=C(Nc1ccc([C@@H](O)[C@H]2COCC(=O)N2Cc2ccc(F)cc2)cc1)c1cccnc1 [CBK289062] | 154.213%
44 | CC(=O)Oc1ccccc1C(=O)Oc1ccc2c(c1)c(C(C)=O)c(C)n2-c1ccccc1 [CBK263175] | 120.837%
45 | Cc1cc2nc(SCc3nc4ccccc4[nH]3)[nH]c2cc1C [CBK264233] | 127.779%
46 | CC(C)(CNC(=O)c1ccc(=O)n(CC(=O)NC2CCCCC2)c1)c1ccc(F)cc1 [CBK285984] | 113.247%
47 | Cc1cc(COc2nccnc2OC2CCN(CC(=O)Nc3c(C)cccc3C)CC2)no1 [CBK082958T] | 91.2262%
48 | Nc1cc(=O)[nH]c(SCC(=O)N2CCc3ccccc32)n1 [CBK307424] | 131.509%
49 | COc1cc2c(cc1OC)CN(C(=O)Cn1cc(C)c(=O)[nH]c1=O)CC2 [CBK122745] | 110.907%
50 | CN1CC(C(=O)N(C)Cc2nc(-c3ccccc3)no2)NC1=O (stereo not drawn) [CBK306727] | 81.9251%
51 | Clc1ccc(-c2c[nH]cn2)cc1 [CBK027542] | 94.189%
52 | COc1cc([C@@H]2c3cc4c(cc3[C@H](O)[C@H]2C(=O)Nc2ccccc2)OCO4)cc(OC)c1OC [CBK200106] | 94.229%

An excerpt of these results, with tabs:
Row	Structure (SMILES)	% of control remaining
50	CN1CC(C(=O)N(C)Cc2nc(-c3ccccc3)no2)NC1=O (stereo not drawn) [CBK306727]	81.9251%
51	Clc1ccc(-c2c[nH]cn2)cc1 [CBK027542]	94.189%
52	COc1cc([C@@H]2c3cc4c(cc3[C@H](O)[C@H]2C(=O)Nc2ccccc2)OCO4)cc(OC)c1OC [CBK200106]	94.229%

(next part)

Row | Structure (SMILES) | % of control remaining
53 | CCOC(=O)CCCNC(=O)N1CCCC(C(=O)N(CC)CC)C1 (stereo not drawn) [CBK156158] | 129.373%
54 | CCCCC1CCC(C(=O)Nc2cc(C)c3c(=O)oc4ccccc4c3n2)CC1 (stereo not drawn) [CBK291136] | 100.349%
55 | O=c1[nH]c2ccccc2nc1-c1cc(Br)ccc1NCc1ccccc1 [CBK088071] | 151.516%
56 | COC(=O)c1c(NC(=O)CC2SCC(C(=O)OC)NC2=O)sc2c1CCCC2 (stereo not drawn) [CBK263834] | 96.5849%
57 | Cc1ccc(OCc2occc2C(=O)N2CCCn3cncc3C2)cc1 [CBK306618] | 84.3958%
58 | COC(=O)C1=COC(C)C2CN3CCC4(NC(=O)c5c4ccc(OC)c5OC)C3CC12 (stereo not drawn) [CBK003303] | 112.733%
59 | CC(=O)Nc1ccc2c(CSc3nnc(-c4ccco4)n3C)cc(=O)oc2c1 [CBK297534] | 151.549%
60 | COCCOCC(=O)N1CCC2(C/C=C/C[C@H]3COCC[C@H]3NC(=O)CNC2=O)CC1 [CBK292170] | 100.217%
61 | Cc1ccc2c(c1)OC1(CCN(C(=O)c3c(-c4ccccc4)nc4ccccn34)CC1)CC2=O [CBK167871] | 131.634%
62 | Cc1ccc(S(=O)(=O)NC2(C(F)(F)F)NC(=O)N(c3ccc(F)c(Cl)c3)C2=O)cc1 (stereo not drawn) [CBK267473] | 109.881%
63 | CC(=O)N1CCC[C@H]2NC(=O)CNC(=O)C3(C/C=C/C[C@H]21)CCN(C(=O)CCC(=O)O)CC3 [CBK292174] | 141.871%
64 | O=C(Nc1c(F)cc(F)cc1OC1CCNCC1)c1ccnc2ccccc12 [CBK050277T] | 109.841%
65 | Cc1nn(C)cc1S(=O)(=O)N1CCc2cc(Cl)ccc21 [CBK282802] | 96.4003%
66 | Cc1nonc1CNC(=O)C1CC2C=CC1C21CC1 (stereo not drawn) [CBK281678] | 146.665%
67 | CN(C)c1ccc(CC(=O)N2CCc3ccccc3C2)cc1 [CBK200340] | 182.727%
68 | CN1CCN(c2n[nH]c(N)n2)CC1 [CBK026743] | 158.807%
69 | Cc1ccc(N(CC(=O)O)S(=O)(=O)c2ccc(C)cc2)cc1 [CBK262409] | 120.231%
70 | Cc1cc(Br)ccc1S(=O)(=O)Nc1nc(-c2c(F)cccc2Cl)cs1 [CBK200026] | 72.648%
71 | O=C(NCc1n[nH]c(=S)n1-c1cccc(C(F)(F)F)c1)c1cccs1 [CBK067697] | 99.7641%
72 | Nc1nc2c(s1)c(O)nc(=O)n2Cc1ccccc1 [CBK291257] | 137.296%
73 | Oc1cccc(Sc2nc3ccccc3nc2N2CCCC2)c1 [CBK093753] | 139.513%
74 | Cc1nc(C)c(CNC(=O)NC2CCCN(c3ccn(C)n3)C2=O)s1 (stereo not drawn) [CBK305457] | 95.0781%
75 | COc1ccc([C@H]2CN(Cc3ccccc3)C[C@@H]2NC(C)=O)cc1 [CBK282930] | 108.596%
76 | COc1ccc(C2(CN3CCC(NC(=O)C4CC4)CC3)CC2)cc1 [CBK285358] | 108.653%
77 | COC(=O)c1ccccc1NC(=O)CSc1nnnn1C [CBK267441] | 116.829%
78 | O=C(CSCC(=O)c1ccc(F)cc1)Nc1ccc2ccccc2c1 [CBK263264] | 100%
